Experimental data: the supplement of paper PMC12595434, “Development of retinoid nuclear receptor pathway antagonists through targeting aldehyde dehydrogenase 1A3” (iScience, 2025)
Some of the results follow. This is a noisy data set.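 Many melting curves are irregular; where none melted, Tm was taken as 64 °C.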

Sequences of proteins named here, by UniProt entry; tags and fusion partners are left off. A change or cut given only in a name is not applied to a line headed by its entry.
UniProt P68400, whole entry, looked up: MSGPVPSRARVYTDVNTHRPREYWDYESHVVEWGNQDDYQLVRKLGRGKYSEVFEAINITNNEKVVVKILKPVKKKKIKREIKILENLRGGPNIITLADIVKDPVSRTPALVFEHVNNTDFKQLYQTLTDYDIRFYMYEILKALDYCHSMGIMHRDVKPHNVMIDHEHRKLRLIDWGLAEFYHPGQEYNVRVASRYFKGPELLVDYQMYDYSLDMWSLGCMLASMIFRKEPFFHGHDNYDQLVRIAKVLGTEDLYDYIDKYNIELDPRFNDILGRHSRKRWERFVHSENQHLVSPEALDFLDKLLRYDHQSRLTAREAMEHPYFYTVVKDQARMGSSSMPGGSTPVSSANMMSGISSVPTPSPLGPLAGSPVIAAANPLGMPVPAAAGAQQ
UniProt P61764, whole entry: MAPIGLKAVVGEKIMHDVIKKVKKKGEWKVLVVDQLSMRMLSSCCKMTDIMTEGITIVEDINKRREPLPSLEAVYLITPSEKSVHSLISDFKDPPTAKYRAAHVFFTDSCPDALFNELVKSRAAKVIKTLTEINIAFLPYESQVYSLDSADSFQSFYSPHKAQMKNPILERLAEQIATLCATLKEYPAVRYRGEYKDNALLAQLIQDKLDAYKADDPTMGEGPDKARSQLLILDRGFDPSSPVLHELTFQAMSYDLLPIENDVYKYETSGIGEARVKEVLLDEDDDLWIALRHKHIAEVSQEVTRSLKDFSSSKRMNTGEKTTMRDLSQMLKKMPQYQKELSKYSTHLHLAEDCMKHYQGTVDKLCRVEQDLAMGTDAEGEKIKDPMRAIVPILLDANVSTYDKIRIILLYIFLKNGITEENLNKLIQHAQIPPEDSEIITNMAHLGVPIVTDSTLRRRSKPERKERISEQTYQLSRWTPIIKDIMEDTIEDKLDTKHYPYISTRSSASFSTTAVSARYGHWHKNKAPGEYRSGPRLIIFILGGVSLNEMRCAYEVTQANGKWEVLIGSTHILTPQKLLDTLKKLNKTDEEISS
UniProt P62333, whole entry: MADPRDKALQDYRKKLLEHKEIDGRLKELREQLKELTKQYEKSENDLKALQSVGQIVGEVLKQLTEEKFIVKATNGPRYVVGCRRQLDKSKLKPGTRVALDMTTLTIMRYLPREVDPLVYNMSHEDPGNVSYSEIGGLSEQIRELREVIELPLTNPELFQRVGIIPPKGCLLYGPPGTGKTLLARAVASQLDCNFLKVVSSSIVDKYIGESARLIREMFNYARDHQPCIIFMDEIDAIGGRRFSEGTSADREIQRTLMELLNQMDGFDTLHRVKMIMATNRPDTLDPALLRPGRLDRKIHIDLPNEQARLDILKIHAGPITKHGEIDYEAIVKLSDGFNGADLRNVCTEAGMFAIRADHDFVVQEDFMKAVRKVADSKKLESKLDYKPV
UniProt P67812: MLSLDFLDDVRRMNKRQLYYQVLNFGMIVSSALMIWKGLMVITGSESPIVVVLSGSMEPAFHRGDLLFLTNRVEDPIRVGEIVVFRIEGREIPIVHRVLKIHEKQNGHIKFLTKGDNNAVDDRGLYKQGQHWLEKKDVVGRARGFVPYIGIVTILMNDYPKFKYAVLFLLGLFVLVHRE
UniProt P56945: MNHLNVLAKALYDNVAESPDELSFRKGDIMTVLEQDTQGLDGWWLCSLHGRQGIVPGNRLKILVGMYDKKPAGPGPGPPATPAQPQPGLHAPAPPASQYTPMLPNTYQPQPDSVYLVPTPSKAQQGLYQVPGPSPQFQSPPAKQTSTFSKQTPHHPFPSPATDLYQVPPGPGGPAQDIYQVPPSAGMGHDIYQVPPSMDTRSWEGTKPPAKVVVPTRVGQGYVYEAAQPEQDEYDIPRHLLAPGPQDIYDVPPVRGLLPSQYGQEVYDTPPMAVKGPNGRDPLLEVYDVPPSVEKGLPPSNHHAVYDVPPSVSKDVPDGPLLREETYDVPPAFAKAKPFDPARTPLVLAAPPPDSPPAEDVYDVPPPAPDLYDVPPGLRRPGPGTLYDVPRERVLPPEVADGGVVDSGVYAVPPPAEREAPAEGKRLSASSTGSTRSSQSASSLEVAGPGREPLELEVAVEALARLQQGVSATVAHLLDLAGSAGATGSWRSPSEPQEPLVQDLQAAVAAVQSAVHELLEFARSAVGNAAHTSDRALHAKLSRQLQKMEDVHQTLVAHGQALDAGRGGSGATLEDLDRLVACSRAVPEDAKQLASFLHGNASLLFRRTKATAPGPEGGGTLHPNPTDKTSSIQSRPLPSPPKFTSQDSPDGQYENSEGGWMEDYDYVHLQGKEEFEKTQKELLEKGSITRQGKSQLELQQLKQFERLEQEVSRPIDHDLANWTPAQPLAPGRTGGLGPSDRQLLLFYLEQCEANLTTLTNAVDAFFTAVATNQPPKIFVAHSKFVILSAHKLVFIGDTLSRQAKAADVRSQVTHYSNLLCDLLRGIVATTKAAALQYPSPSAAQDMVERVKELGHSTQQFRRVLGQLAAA
UniProt P60660, whole entry: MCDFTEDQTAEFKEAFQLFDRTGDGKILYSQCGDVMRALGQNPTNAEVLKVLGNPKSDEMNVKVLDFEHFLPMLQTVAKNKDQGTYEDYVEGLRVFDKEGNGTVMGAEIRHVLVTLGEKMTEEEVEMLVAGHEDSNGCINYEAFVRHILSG
UniProt P55789: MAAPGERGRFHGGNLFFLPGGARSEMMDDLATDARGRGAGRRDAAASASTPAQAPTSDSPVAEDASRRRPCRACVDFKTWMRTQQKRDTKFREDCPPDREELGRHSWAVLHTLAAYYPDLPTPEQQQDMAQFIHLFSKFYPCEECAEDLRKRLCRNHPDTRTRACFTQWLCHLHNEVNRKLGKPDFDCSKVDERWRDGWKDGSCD
UniProt P68363, whole entry: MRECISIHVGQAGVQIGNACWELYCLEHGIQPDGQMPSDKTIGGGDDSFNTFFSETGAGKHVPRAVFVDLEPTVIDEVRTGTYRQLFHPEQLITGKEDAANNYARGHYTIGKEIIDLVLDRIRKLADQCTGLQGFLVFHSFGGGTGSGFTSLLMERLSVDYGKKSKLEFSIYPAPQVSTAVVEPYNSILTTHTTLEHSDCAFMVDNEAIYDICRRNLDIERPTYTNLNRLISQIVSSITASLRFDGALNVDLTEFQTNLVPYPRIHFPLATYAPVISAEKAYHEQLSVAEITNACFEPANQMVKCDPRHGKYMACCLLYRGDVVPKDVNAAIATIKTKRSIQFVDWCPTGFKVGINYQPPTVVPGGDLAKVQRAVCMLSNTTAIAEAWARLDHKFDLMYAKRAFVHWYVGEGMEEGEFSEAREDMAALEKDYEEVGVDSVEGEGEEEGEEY
UniProt P55010, whole entry: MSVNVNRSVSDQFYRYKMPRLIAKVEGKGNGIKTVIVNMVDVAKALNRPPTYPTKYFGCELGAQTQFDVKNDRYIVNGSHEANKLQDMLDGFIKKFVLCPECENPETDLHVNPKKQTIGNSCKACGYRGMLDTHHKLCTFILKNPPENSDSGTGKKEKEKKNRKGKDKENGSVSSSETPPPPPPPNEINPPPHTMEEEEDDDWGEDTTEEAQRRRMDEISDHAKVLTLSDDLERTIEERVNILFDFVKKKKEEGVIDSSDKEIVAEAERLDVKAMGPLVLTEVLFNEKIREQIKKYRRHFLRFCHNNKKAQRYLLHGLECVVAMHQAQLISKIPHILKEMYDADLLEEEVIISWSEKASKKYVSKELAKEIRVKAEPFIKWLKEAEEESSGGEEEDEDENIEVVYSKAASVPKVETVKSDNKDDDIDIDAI
UniProt P61019: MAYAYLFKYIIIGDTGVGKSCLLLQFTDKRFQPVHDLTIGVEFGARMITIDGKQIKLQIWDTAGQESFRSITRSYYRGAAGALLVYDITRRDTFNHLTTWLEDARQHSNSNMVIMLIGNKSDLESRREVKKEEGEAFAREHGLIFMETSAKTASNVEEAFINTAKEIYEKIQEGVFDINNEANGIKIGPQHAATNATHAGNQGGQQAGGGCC
UniProt P55795: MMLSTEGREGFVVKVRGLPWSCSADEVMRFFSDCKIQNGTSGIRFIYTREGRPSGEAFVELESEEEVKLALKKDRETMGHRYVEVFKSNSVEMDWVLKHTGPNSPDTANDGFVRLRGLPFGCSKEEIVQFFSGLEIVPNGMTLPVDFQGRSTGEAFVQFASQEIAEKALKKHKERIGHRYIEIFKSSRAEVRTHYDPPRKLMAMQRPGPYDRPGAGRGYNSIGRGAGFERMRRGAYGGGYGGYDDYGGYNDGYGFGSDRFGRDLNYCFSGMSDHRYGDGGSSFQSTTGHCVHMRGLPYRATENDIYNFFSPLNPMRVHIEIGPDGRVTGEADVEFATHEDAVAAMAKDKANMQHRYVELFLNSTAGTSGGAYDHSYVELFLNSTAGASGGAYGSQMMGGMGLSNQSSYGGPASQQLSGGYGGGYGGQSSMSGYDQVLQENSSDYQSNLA
UniProt P57721, whole entry: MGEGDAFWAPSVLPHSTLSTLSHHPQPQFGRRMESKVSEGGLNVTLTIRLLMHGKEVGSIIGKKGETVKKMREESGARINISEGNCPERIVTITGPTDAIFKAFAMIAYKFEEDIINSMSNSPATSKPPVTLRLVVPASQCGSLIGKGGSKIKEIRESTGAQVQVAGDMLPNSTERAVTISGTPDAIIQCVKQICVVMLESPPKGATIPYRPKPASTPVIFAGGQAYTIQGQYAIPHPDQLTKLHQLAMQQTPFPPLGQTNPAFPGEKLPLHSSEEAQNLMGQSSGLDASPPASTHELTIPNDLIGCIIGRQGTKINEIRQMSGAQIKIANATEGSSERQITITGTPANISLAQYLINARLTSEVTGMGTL
UniProt P52272: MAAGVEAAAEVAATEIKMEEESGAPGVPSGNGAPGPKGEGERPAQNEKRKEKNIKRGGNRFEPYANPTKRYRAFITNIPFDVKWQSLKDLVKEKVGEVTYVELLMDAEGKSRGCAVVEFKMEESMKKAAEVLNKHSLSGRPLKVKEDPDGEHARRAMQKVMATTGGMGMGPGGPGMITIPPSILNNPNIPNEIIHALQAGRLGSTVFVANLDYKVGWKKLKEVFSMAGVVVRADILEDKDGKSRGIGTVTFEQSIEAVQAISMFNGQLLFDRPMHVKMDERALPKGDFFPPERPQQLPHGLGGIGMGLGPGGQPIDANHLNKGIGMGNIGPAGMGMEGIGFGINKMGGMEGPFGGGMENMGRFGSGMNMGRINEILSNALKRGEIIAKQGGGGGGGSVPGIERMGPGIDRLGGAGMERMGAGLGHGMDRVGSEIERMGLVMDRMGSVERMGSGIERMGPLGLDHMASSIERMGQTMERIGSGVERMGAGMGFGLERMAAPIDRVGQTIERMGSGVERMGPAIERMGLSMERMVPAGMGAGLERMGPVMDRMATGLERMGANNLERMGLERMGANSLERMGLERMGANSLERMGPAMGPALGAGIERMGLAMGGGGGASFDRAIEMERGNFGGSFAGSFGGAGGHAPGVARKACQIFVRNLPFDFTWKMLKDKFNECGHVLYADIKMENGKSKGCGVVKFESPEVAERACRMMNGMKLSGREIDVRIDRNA
UniProt P55058, whole entry: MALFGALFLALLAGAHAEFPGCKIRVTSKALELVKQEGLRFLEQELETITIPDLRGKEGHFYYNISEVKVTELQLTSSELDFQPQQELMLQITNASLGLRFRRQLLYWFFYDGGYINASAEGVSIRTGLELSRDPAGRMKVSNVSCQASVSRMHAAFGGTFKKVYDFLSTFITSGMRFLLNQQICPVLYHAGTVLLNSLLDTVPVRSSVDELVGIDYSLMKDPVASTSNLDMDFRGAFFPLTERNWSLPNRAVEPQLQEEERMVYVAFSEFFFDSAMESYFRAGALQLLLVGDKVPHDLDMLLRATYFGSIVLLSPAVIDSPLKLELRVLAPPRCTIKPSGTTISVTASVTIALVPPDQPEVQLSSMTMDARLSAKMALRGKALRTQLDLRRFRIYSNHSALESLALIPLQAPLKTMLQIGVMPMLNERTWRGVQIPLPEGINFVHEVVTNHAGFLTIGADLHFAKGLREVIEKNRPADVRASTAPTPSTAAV
UniProt P54105: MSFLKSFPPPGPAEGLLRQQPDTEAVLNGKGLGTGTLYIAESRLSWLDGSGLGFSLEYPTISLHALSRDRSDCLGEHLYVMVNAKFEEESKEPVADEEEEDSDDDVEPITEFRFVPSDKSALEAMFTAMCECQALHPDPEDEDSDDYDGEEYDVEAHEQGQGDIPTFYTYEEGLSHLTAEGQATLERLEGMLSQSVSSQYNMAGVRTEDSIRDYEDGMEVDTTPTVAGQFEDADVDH
UniProt P62995: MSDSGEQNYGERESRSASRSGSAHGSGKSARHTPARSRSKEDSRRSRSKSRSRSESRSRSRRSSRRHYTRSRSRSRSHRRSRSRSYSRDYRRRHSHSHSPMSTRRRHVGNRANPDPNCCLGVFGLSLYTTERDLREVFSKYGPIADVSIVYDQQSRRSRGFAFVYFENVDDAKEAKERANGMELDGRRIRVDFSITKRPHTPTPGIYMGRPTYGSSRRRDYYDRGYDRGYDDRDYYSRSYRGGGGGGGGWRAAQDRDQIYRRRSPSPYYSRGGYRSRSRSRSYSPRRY

Compound: CCc1cnccc1C(=O)Nc1cc2c(cc1F)NC(=O)CC2
Assay: melting temperature shift (DMSO Tm minus MBE1-treated Tm) in cellular thermal proteome profiling; higher = less thermal stabilization by MBE1 (negative = stabilized by MBE1)
Details: A375

Target | melting temperature shift (MBE1 concentration: 100 nM) [°C] | melting temperature shift (MBE1 concentration: 1 uM) [°C]
UniProt P68400 | -0.763 | 0.525
UniProt P52435 | -0.0333 | -0.839
STXBP1 (UniProt P61764) | -0.518 | -0.193
UniProt P61601 | -1.31 | 1.04
ADAR (UniProt P55265) | -0.787 | -0.372
PSMC6 (UniProt P62333) | -0.49 | 1.21
SEC11A (UniProt P67812) | -0.315 | -0.241
RPS7 (UniProt P62081) | -1.9 | -0.51
BCAR1 (UniProt P56945) | -0.781 | -0.506
MYL6 (UniProt P60660) | -0.415 | -0.208
GFER (UniProt P55789) | 1.69 | -5.2
UniProt P68363 | -2.11 | 1.04
RPS25 (UniProt P62851) | -1.57 | -1.23
EIF5 (UniProt P55010) | -0.476 | -0.256
RAB2A (UniProt P61019) | -1.29 | -1.36
HNRNPH2 (UniProt P55795) | 0.378 | -0.243
UniProt P57721 | -0.134 | -0.055
HNRNPM (UniProt P52272) | -0.231 | -0.397
UniProt P55058 | -1.76 | 1.02
CLNS1A (UniProt P54105) | -0.556 | 0.503
TRA2B (UniProt P62995) | -1.5 | -0.0469

An excerpt of these results, as tab-separated lines.
Target	melting temperature shift (MBE1 concentration: 100 nM) [°C]	melting temperature shift (MBE1 concentration: 1 uM) [°C]
UniProt P61601	-1.31	1.04
ADAR (UniProt P55265)	-0.787	-0.372
